Read-outs that look alike come from different tables or passages of the source. These are yes or no findings as the source states them, for the method shown. In cells and extracts the contact can be indirect. Some entries that bind do so weakly or less than the wild type. For some assays here: Tags and fused reporters may be left off the sequences shown.

Sequences of proteins named here, by UniProt entry; tags and fusion partners are left off.
UniProt P35226: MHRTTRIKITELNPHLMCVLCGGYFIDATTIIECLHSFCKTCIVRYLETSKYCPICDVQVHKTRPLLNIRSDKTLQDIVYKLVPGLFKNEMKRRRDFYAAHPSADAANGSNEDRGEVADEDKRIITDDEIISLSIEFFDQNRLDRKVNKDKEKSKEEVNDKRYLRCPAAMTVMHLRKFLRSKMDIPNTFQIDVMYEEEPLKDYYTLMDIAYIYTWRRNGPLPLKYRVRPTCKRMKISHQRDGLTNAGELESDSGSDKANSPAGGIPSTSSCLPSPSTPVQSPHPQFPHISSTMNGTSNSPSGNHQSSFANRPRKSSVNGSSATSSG
UniProt P62136: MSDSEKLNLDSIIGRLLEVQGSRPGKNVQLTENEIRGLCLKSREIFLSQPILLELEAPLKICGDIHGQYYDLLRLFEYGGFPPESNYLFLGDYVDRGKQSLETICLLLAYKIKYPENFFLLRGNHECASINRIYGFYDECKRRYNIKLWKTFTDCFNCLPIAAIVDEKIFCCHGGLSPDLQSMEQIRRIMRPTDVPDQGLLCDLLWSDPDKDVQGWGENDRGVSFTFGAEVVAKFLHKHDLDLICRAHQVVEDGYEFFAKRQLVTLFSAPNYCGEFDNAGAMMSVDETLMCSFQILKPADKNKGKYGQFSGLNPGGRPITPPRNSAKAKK

Holding throughout (experiment): co-IP
The target in experiment [1] is T1, RASSF6 (endogenous, SW480 cells) (human (endogenous in SW480)) (UniProt Q6ZTQ3).
T1 sequence: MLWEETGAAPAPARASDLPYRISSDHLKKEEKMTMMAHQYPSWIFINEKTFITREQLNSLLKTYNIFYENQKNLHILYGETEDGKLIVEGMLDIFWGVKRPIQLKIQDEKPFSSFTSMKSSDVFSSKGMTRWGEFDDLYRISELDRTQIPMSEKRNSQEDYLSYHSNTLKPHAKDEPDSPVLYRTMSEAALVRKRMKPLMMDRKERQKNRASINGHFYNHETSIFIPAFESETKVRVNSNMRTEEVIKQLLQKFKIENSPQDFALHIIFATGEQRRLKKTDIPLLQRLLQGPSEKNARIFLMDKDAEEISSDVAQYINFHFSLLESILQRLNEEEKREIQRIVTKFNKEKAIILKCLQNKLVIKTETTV

The target of experiment [2] is T2, V5-pRb (pLX304-pRb-V5) (UniProt P06400).
T2 sequence: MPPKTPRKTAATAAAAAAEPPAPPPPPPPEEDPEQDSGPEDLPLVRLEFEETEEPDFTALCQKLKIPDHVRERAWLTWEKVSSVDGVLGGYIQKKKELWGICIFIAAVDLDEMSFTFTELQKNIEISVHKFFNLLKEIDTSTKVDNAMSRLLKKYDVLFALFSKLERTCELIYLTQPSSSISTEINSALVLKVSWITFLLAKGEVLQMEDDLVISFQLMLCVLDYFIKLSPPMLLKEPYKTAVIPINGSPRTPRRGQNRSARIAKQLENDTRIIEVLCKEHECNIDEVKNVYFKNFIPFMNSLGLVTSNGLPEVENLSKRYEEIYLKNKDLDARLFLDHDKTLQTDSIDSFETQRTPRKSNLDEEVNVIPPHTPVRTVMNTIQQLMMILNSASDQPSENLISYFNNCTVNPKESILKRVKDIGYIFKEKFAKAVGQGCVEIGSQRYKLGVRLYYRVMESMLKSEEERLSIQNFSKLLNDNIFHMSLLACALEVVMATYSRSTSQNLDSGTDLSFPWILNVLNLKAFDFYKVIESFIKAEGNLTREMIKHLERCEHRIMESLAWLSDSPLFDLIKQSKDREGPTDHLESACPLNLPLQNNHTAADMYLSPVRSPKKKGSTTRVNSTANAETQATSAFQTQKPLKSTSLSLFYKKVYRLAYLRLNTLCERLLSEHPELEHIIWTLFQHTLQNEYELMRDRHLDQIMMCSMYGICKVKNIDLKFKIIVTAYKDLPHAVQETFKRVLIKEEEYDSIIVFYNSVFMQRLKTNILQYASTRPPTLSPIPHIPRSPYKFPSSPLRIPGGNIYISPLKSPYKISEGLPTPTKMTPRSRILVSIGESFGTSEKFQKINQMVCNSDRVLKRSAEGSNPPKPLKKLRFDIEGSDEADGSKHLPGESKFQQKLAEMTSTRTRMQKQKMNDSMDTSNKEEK

Experiment [3] has as its target T1, RASSF6 (endogenous, SW480 cells) (human (endogenous in SW480)). This is another data set of the same source.
The target in experiment [4] is T3, FLAG-RASSF6 (pCIneoFHF-RASSF6) (UniProt Q6ZTQ3).
T3 sequence: T1 sequence

In experiment [5] the target is T2, V5-pRb (pLX304-pRb-V5). This is another data set of the same source.

For “polycomb complex protein BMI1 (endogenous, SW480 cells) (from UniProt P35226 1-326)”, the binding result in experiment [1] is listed as “binds”.

“luciferase-fused PP1A (pCIneoLuc-PP1A) (from UniProt P62136 1-330) (enzyme)”: the binding result with V5-pRb (pLX304-pRb-V5) [2] is reported as “binds”.

B1: Retinoblastoma protein (endogenous, SW480 cells) (protein, UniProt P06400 1-928)
chain: T2 sequence
In the case of B1, the binding result in experiment [3] is “binds”.

B2: V5-pRb (pLX304-pRb-V5) (protein, UniProt P06400 1-928)
chain: T2 sequence
For B2, the binding result in experiment [4] is on record as “binds”.

B3: FLAG-RASSF6 (pCIneoFHF-RASSF6) (protein, UniProt Q6ZTQ3 1-369)
chain: T1 sequence
As to B3, the binding entry with V5-pRb (pLX304-pRb-V5) [5] is “binds”.

(Values after paper doi:10.1101/334276.)
